Assay results: PubChem BioAssay AID652054 (National Center for Advancing Translational Sciences (NCATS), 2013)
Hit rate of the full screen: of about 360,000 compounds, about 9,100 (2.5%) were called active. The shares of active, inactive and inconclusive entries below differ from those in the screen. No stated cut-off is given here; in the data, active means max response below about -50%; inconclusive means no clear call, values can overlap the other calls; inactive means above that.

Chains of the proteins cited; added tags and fusions are not shown.
UniProt P35462, whole entry, looked up: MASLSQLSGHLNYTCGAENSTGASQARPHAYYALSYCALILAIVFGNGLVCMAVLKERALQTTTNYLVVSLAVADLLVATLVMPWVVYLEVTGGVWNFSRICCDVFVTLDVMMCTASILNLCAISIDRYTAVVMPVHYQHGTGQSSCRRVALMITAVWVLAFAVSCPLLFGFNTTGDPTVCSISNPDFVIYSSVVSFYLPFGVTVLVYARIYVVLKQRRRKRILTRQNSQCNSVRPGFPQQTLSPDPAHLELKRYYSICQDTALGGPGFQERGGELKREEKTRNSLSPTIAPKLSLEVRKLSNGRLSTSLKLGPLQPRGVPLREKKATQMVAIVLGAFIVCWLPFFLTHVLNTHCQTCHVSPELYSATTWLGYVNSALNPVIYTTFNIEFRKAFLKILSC

Biological target: D(3) dopamine receptor (Homo sapiens) (UniProt P35462)
Experiment: qHTS of D3 Dopamine Receptor Antagonist: qHTS
Details: D3R cells, DiscoveRx beta-arrestin luminescence, antagonist mode; active compounds read low
In short: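 Cells expressing the human receptor were seeded at 1500 cells/well, incubated overnight at 37 degrees C in 5% CO2, then exposed to library compounds with dopamine controls for 90 minutes at 37 degrees C before luminescent detection.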
On the % scale 0 is the no-effect control and ±100 the full control effect.

Compound | max response, negative = inhibition
COc1ccc(OCC(O)CN2CCN(c3ccccc3)CC2)cc1 (stereo unspecified) | inconclusive: -43%
CCC(C)NC(=O)c1ccc([N+](=O)[O-])c(Cl)c1 (stereo unspecified) | inconclusive: -31.5%
CC1(C(=O)Nc2cccc(C(F)(F)F)c2)Cc2c(-c3ccc4c(c3)OCO4)ccnc2O1 (stereo unspecified) | active: -59.3%
Cc1ccc2[nH]c(-c3ccccc3)c(CN3CCN(C)CC3)c(=O)c2c1 | active: -76%
COc1ccc([C@H]2C[C@H](n3cc(-c4ccc(F)cc4)nn3)[C@@H](O)CN2Cc2cccs2)cc1 | inactive: 6.33%
CCCNC(=O)c1onc(CSc2ccc(Cl)cc2)c1C(=O)NCCOC | inconclusive: -39.2%
Cc1cccc(/C=C/c2onc(C)c2S(=O)(=O)N2CCC(C(=O)NC(C)C)CC2)c1 | inconclusive: -30.6%
COC(=O)Cc1ccc(OC2(C)CCN(Cc3ccccc3)C2)cc1 (stereo unspecified) | active: -89%
CC1Cc2ccccc2N1C(=O)CSCC(=O)O (stereo unspecified) | inconclusive: -36.4%
Cc1cccc(-c2cc3nc(C)cc(C)n3n2)c1 | inactive: -1.03%
Cc1ccc(-c2nnc(SCC(=O)N3CCCC3)o2)cc1C | inconclusive: -44.2%
Cc1ccc(S(=O)(=O)n2cc(-c3ccccc3)c3ccccc32)cc1 | inconclusive: -33.5%
CCC(=O)Nc1cccc(NC(=O)c2cccc([N+](=O)[O-])c2)c1 | inconclusive: -38.9%
Cc1cc(S(=O)(=O)NCc2ccc(S(N)(=O)=O)cc2)c(C)s1 | inactive: -2.98%
O=C(NCCCn1ccnc1)C(=O)NCC(c1cccnc1)N1CCN(c2ccccc2)CC1 (stereo unspecified) | inconclusive: -36.5%
C/C(=N\NC(N)=O)c1c(F)cccc1F | inactive: 3.65%
COc1ccc(F)cc1C(=O)C1CCCN(Cc2ccc(Oc3ncccn3)cc2)C1 (stereo unspecified) | active: -72.8%
N#CC1=C(N)C(C#N)(C#N)[C@H](c2ccoc2)[C@H]2CN(Cc3ccccc3)CC=C12 | inconclusive: -41.5%
CCNC(=O)C1CCCN(C(=O)c2ccc(OC)cc2OC)CC1 (stereo unspecified) | inconclusive: -41.8%
CC(=O)c1ccccc1NC(=O)c1ccc(N2CCCC2=O)cc1 | inactive: 6.43%
CCC1CN(C(=O)NCc2ccc(F)cc2)c2ccccc2O1 (stereo unspecified) | inactive: 4.56%
Cc1ccc(N2CCN(CC(O)COc3ccccc3)CC2)cc1 (stereo unspecified) | active: -54.3%
Cc1cc(NC(=O)c2ccccc2Cl)n(C(C)(C)C)n1 | inconclusive: -36.9%

Compound | max response, negative = inhibition
O=C1N(Cc2ccccc2)CC2(Br)COCOC12O (stereo unspecified) | inconclusive: -39.1%
Oc1ccc(Cl)cc1CNCc1ccc(F)cc1 | active: -81.2%
COc1cc(C(C)=O)ccc1OCC(O)CN1CCN(c2ccc(F)cc2)CC1 (stereo unspecified) | inconclusive: -42.6%
O=C(C[n+]1cc(-c2ccccc2)n2c1CCCCC2)c1ccc(Br)cc1 | inconclusive: -41.2%
COc1ccccc1N1CCN(C(=O)COc2cc(C)ccc2C)CC1 | inconclusive: -30.7%
COc1cc(Cl)cc(/C=C/c2ccc3cccc(O)c3n2)c1OC | active: -93.7%
CSc1nnc(-c2cccs2)n1-c1ccccc1 | inconclusive: -41.5%
CC1CN(CCCSc2ccc(Cl)cc2)CC(C)O1 (stereo unspecified) | active: -71.1%
CC1(C)Cc2c(c(-c3ccccc3)nc3sc4c(=O)[nH]c(=S)[nH]c4c23)CO1 | inconclusive: -36.8%
CCOC(=O)c1c(C)nn(-c2ccc(NC(=O)c3cccs3)cc2)c1C | inactive: 22.7%
Cc1ccc(SCCN2CCN(C)CCC2=O)cc1 | inconclusive: -35.8%
CCc1nc2c(OCC(N)=O)cccn2c1N(C)C(=O)C(C)C | inactive: -15.4%
CC(C)(C)C(=O)N1CCN(c2ccc(NC(=O)c3ccc4c(c3)OCCO4)cc2)CC1 | inactive: 8.92%
CCC(=O)Nc1ccc2c(c1)N(C(C)=O)c1ccccc1CC2 | inconclusive: -42.6%
Cc1cccc(C)c1NC(=O)CN(C)C(=O)C1CCCCC1 | inconclusive: -35.6%
CCCSc1cc(NCCOC(=O)CCC)c([N+](=O)[O-])c2nonc12 | inactive: -14.2%
CC(=O)NC(c1ccccc1)c1nc(-c2ccccc2)cs1 (stereo unspecified) | inactive: 11.5%
Cc1c(NC(=O)CSc2nnc(-c3cccc(Cl)c3)o2)c(=O)n(-c2ccccc2)n1C | active: -71.6%
Fc1ccccc1OCCCN1CCOCC1 | inconclusive: -41.3%
COc1cccc2c(Nc3ccccc3C)cc(C)nc12 | inactive: -17.6%
Cc1ccccc1NC(=O)CC1c2ccccc2CC(C)(C)N1C (stereo unspecified) | inconclusive: -34.2%
CCN(CC)c1nc2ccccc2c(N)c1-c1ccccc1 | inconclusive: -39.8%

Three entries picked at random from those above, as already listed:
Compound | max response, negative = inhibition
COc1ccc(F)cc1C(=O)C1CCCN(Cc2ccc(Oc3ncccn3)cc2)C1 (stereo unspecified) | active: -72.8%
Cc1ccc2[nH]c(-c3ccccc3)c(CN3CCN(C)CC3)c(=O)c2c1 | active: -76%
Cc1cccc(C)c1NC(=O)CN(C)C(=O)C1CCCCC1 | inconclusive: -35.6%

Later entries.

Compound | max response, negative = inhibition
CN1CCc2c(sc3c2C(=O)NC(c2cccc(OC(=O)c4cccs4)c2)N3)C1 (stereo unspecified) | inconclusive: -31.5%
Fc1ccc(NC(=S)Nc2ccc(Cl)cc2Cl)cc1 | inconclusive: -37.2%
O=C1CCN(CCc2ccccc2)CCN1[C@H](CSc1ccccc1)c1ccccc1 | inconclusive: -37.1%
Fc1ccc(CSc2ccc(-c3ccco3)nn2)cc1 | inconclusive: -30.3%
CN(c1ccccc1)S(=O)(=O)c1ccc(C(=O)NCC(c2ccco2)N2CCCCC2)cc1 (stereo unspecified) | inconclusive: -45%
COc1ccc(NC(=O)Nc2ccc3c(c2)C(=O)N([C@H](C)CO)C[C@H](C)[C@@H](CN(C)Cc2ccc(Cl)c(Cl)c2)OCCCC[C@@H](C)O3)cc1 | inactive: 1.88%
O=C1CCCC/C1=C/Nc1ccc(S(=O)(=O)Nc2ncccn2)cc1 | inconclusive: -37%
CCOc1ccccc1NC(=O)COC(=O)c1c[nH]c2ccccc12 | inactive: 2.9%
Cc1ccccc1N1CCN(Cc2ccc(Br)o2)CC1 | active: -57.7%
Cc1ccc(O)c(C(=O)CC(=O)c2ccccc2Cl)c1 | inactive: -9.04%
CC1CCc2nc(NC(=O)CCSc3ccccc3)sc2C1 (stereo unspecified) | inconclusive: -39.3%
Cc1sc2ncn(CC(=O)NCC3COc4ccccc4O3)c(=O)c2c1S(=O)(=O)N1CCCCC1 (stereo unspecified) | inactive: -10.7%
CCOc1ccc(NS(=O)(=O)c2ccc(C(=O)N(C)Cc3cccc(OC)c3OC)cc2)cc1 | inconclusive: -41.2%
CC(=O)C1=C(O)C(=CC=Cc2ccccc2)OC1=O | inconclusive: -39.5%
O=C(COC(=O)COc1ccc(Cl)cc1Br)NCc1cccs1 | inactive: 11.1%
O=C(C[C@H]1C/C=C\C[C@H](Cc2ccc(F)cc2)C(=O)O[C@@H](c2ccccc2)CNC1=O)NCCO | inconclusive: -32.1%
Cn1c(=O)cc(N)n(Cc2ccccc2)c1=O | inconclusive: -33.2%
C/C(Cn1nnc([N+](=O)[O-])n1)=N\NC(=O)c1ccc(C)cc1 | inactive: 3.43%
CN1CCN(c2ccc(CNC(=O)c3cc4ccccc4o3)cc2)CC1 | inconclusive: -37.3%
Cc1c(C(=O)N2CCOCC2)sc(NC(=O)c2ccc([N+](=O)[O-])cc2)c1C#N | inconclusive: -34.5%
Cc1ccccc1N1CCN(C2CCCN(C(=O)c3ccc(Cl)s3)C2)CC1 (stereo unspecified) | inconclusive: -46.2%
Cn1nccc1C(=O)NC1CCN(Cc2ccccc2)CC1 | active: -79.7%
Cc1ccc(NC(=O)CCn2nc([N+](=O)[O-])cc2C)nc1 | inconclusive: -36.6%

Compound | max response, negative = inhibition
C[C@@H]1CN([C@H](C)CO)C(=O)CCCn2cc(nn2)CO[C@H]1CN(C)C(=O)Cc1ccccc1 | inactive: -24.1%
Cc1cccc(NC(=O)N(C)Cc2cccs2)c1 | inconclusive: -33.2%
CCc1ccc(CCC(=O)Nc2ccc(OC)cc2)o1 | inactive: -13.3%
CCCCn1c(NC(=O)CC)c(C#N)c2nc3ccccc3nc21 | inactive: 7.59%
O=C1C2CCCN2C(=O)N1CCCN1CCN(c2cccc(Cl)c2)CC1 (stereo unspecified) | active: -50.3%
Cc1ccc(NC(=O)C2CCCC2)c(Br)c1 | inactive: -17.4%
COc1ccc(C(CNC(=O)c2cccc(S(=O)(=O)Nc3ccc(F)cc3)c2)N2CCCC2)cc1 (stereo unspecified) | inconclusive: -36.7%
Cc1ccc(Cn2c(C(=O)NCCCN3CCOCC3)cc3sccc32)cc1 | active: -50.8%
CC(/C=N/NC(=O)c1cc(C(C)(C)C)[nH]n1)=C\c1ccccc1 | active: -54.1%
C/C(=C\C(=O)c1ccc(Br)cc1)Nc1cccc(Cl)c1 | inactive: -8.72%
COc1ccc(N2CCN(c3ccc(N)cc3C#N)CC2)cc1 | inconclusive: -32.1%
O=C(Nc1ncc2c(n1)CC(c1ccccc1)CC2=O)c1ccco1 (stereo unspecified) | inactive: 13.3%
CC(=O)N(C1CC(C)C(C#N)(C#N)C1(C#N)C#N)N(C)C (stereo unspecified) | active: -70.7%
NS(=O)(=O)c1ccc(N2N=C(c3ccccc3)CC2c2ccccc2Cl)cc1 (stereo unspecified) | inactive: 28%
Cc1ccc([N+](=O)[O-])cc1NC(=S)NC(=O)CC(C)(C)C | inconclusive: -35.9%
COc1ccc(OCC(CO)N2CCN(c3ccccc3)CC2)cc1 (stereo unspecified) | inconclusive: -39.5%
CC(=O)c1nc(-c2ccccc2)sc1C | inactive: 7.01%
O=C(O)/C=C/C(=O)NNc1ccc([N+](=O)[O-])cc1 | inconclusive: -30.5%
COc1ccc(NC(=O)c2ccc(N3C(=O)C4CC=C(C)CC4C3=O)cc2)c(OC)c1 (stereo unspecified) | inconclusive: -32.6%
O=C(Cc1ccc(Br)cc1)Nc1ccc(S(=O)(=O)NCC2CCCO2)cc1 (stereo unspecified) | inactive: -13.5%
NC(=O)CC(NC(=O)Cc1ccc(Br)cc1)c1ccc(NC2CCCCCCC2)c([N+](=O)[O-])c1 (stereo unspecified) | inconclusive: -39.1%
Cc1ccc(CN2CCN(/N=C/c3cc(Br)cc(Br)c3O)CC2)c(C)c1 | inconclusive: -49.9%
